Experimental data published in US10716306B2, “N-alkylsulfonyl indoline compound, agricultural and horticultural insecticide comprising the compound, and method for using the insecticide” (Nihon Nohyaku Co., Ltd., priority 2016, dated 2020).
Some results were stated once for a whole list of compounds, not compound by compound.

Tested on: Green peach aphids (Myzus persicae)
Experiment: Test for control efficacy on Myzus persicae
Assay type: in vivo
Conditions: 500 ppm, foliar application to potted Chinese cabbage plants, 6 days after the foliar application

| SMILES | control efficacy (control rate) |
| --- | --- |
| CCS(=O)(=O)N1c2ccc(C(F)(F)F)cc2CC1c1nc2cc(SC(F)(F)F)ccc2o1 (racemic) [Compound 3-6] | A (the control rate is 100%) |
| CCS(=O)(=O)N1c2ccc(C(F)(F)F)cc2CC1c1nc2cc(S(=O)(=O)C(F)(F)F)ccc2o1 (racemic) [Compound 3-45] | A (the control rate is 100%) |
| CCS(=O)(=O)N1c2cc(Cl)c(Cl)cc2CC1c1nc2cc([S+]([O-])C(F)(F)F)ccc2o1 (racemic) [Compound 3-81] | A (the control rate is 100%) |
| CCS(=O)(=O)N1c2ccc(C(F)(F)F)cc2CC1c1nc2cc([S+]([O-])C(F)(F)F)ccc2o1 (racemic) [Compound 3-80] | A (the control rate is 100%) |
| CCS(=O)(=O)N1c2cc(Cl)c(Cl)cc2CC1c1nc2cc(SC(F)(F)F)ccc2o1 (racemic) [Compound 3-79] | A (the control rate is 100%) |
| CCS(=O)(=O)N1c2ccc(Cl)cc2CC1c1nc2cc(SC(F)(F)F)ccc2o1 (racemic) [Compound 3-3] | A (the control rate is 100%) |
| CCS(=O)(=O)N1c2cc(Cl)c(Cl)cc2CC1c1nc2cc(S(=O)(=O)C(F)(F)F)ccc2o1 (racemic) [Compound 3-82] | A (the control rate is 100%) |
| CCS(=O)(=O)N1c2cc(Cl)ccc2CC1c1nc2cc(SC(F)(F)F)ccc2o1 (racemic) [Compound 3-21] | A (the control rate is 100%) |
| CCS(=O)(=O)N1c2ccc(Br)cc2CC1c1nc2cc(SC(F)(F)F)ccc2o1 (racemic) [Compound 3-4] | A (the control rate is 100%) |
| CCS(=O)(=O)N1c2cc(Cl)c(I)cc2CC1c1nc2cc(SC(F)(F)F)ccc2o1 (racemic) [Compound 3-83] | A (the control rate is 100%) |
